From patent publication US20110230406A1
Results are given in words; binding and its absence hold for the method and conditions named. Some entries that bind do so weakly or less than the wild type.

T1: biotinylated BMP-2 (R&D Systems, Item number 355-BM/CF) (human) (UniProt P12643)
T1 sequence (biotinylated (sites not given), looked up): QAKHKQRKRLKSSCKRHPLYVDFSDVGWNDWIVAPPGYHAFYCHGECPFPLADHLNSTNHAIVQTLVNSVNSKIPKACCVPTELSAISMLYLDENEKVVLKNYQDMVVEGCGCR


What was measured:
[1] = target: T1, biotinylated BMP-2 (R&D Systems, Item number 355-BM/CF) (human); experiment: serine-scan mutant phage ELISA
Streptavidin = experiment: phage ELISA titration, streptavidin-coated wells without BMP-2, HRP anti-M13 antibody, luminescence

Binder	binding [1]	binding (Streptavidin)
AGRDSFNLLTS [SEQ ID NO: 34, a fragment of SEQ ID NO: 6]	binds	–
AGFRWWHTQPAHTLSYT (peptide, not shown: large carriers) [phage displaying the peptide of SEQ ID NO: 4 on the pIX minor coat protein]	–	binds
AGYTSFALLKS [SEQ ID NO: 33, a fragment of SEQ ID NO: 3]	binds	–
